Laboratory results from patent US20120294856A1.
No constants are given. Whether binding was seen depends on the method and setting. For some assays here: Binding seen in cells or lysates may run through a third protein. Some results given as binding are weak or reduced against the parent protein; the word gives no strength. Values belong to the molecule of their own block, whether it stands above or below them.

The chains behind the UniProt entries cited, without tags or fusion partners. Where a name states a change or a piece, a line headed by the entry shows the natural chain unless it says otherwise.
UniProt P25445: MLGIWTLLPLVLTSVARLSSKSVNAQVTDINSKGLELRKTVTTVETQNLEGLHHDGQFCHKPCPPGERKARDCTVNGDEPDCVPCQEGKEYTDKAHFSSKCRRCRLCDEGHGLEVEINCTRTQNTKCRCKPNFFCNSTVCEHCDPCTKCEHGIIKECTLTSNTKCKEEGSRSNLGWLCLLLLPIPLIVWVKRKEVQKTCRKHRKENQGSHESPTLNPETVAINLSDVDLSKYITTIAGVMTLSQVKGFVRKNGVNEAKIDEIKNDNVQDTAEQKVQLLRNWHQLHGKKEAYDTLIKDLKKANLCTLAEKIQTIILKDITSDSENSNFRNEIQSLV

How the values were obtained:
[1] = biological target: T1, SH2 domain from Sck (Homo sapiens (Human)) (UniProt P98077); test: Transsignal SH2 Domain Array with cell lysates
T1 sequence: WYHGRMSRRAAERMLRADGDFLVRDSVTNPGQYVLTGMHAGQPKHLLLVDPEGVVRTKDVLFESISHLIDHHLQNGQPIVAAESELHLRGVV

[2] = biological target: T1, SH2 domain from Sck (Homo sapiens (Human)); test: Transsignal SH2 Domain Array with stimulated cell lysates
[3] = biological target: CD95 (Homo sapiens (Human)) (UniProt P25445); test: co-immunoprecipitation from cell lysates, western blot for Sck
[4] = biological target: CD95 (Homo sapiens (Human)) (UniProt P25445); test: co-immunoprecipitation from PANC1 and Colo357 lysates after CD95L-T4 stimulation
[5] = biological target: CD95 (Homo sapiens (Human)) (UniProt P25445); test: co-immunoprecipitation from cell lysates

binding [1]: binds
binding [2]: binds
Molecule: CD95 (from UniProt P25445 26-335) (receptor)

binding [3]: binds
binding [4]: binds
binding [5]: binds
B1: Sck (SHC (Src homology 2 domain containing) transforming protein 2) (protein)
chain: MTQGPGGRAPPAPPAPPEPEAPTTFCALLPRMPQWKFAAPGGFLGRGPAAARAAGASGGADPQPEPAGPGGVPALAAAVLGACEPRCAAPCPLPALSRCRGAGSRGSRGGRGAAGSGDAAAAAEWIRKGSFIHKPAHGWLHPDARVLGPGVSYVVRYMGCIEVLRSMRSLDFNTRTQVTREAINRLHEAVPGVRGSWKKKAPNKALASVLGKSNLRFAGMSISIHISTDGLSLSVPATRQVIANHHMPSISFASGGDTDMTDYVAYVAKDPINQRACHILECCEGLAQSIISTVGQAFELRFKQYLHSPPKVALPPERLAGPEESAWGDEEDSLEHNYYNSIPGKEPPLGGLVDSRLALTQPCALTALDQGPSPSLRDACSLPWDVGSTGTAPPGDGYVQADARGPPDHEEHLYVNTQGLDAPEPEDSPKKDLFDMRPFEDALKLHECSVAAGVTAAPLPLEDQWPSPPTRRAPVAPTEEQLRQEPWYHGRMSRRAAERMLRADGDFLVRDSVTNPGQYVLTGMHAGQPKHLLLVDPEGVVRTKDVLFESISHLIDHHLQNGQPIVAAESELHLRGVVSREP
